Values quoted from earlier work, collected in patent US20150344404A1, “PDK4 INHIBITOR AND USE THEREOF” (THE KITASATO INSTITUE, priority 2012, published 2015).

Tested on: PDK
Settings: cited from earlier work

CN[C@@H]1C[C@H]2O[C@@](C)([C@@H]1OC)n1c3ccccc3c3c4c(c5c6ccccc6n2c5c31)C(=O)NC4 [staurosporine]
inhibition of PDK: not inhibited totally
